Among the data in paper PMC8605320 are binding values, retold here.

By UniProt entry, the sequences of proteins in these tests, tags left out. Residues count along the entry.
UniProt P27824, residues 21-592: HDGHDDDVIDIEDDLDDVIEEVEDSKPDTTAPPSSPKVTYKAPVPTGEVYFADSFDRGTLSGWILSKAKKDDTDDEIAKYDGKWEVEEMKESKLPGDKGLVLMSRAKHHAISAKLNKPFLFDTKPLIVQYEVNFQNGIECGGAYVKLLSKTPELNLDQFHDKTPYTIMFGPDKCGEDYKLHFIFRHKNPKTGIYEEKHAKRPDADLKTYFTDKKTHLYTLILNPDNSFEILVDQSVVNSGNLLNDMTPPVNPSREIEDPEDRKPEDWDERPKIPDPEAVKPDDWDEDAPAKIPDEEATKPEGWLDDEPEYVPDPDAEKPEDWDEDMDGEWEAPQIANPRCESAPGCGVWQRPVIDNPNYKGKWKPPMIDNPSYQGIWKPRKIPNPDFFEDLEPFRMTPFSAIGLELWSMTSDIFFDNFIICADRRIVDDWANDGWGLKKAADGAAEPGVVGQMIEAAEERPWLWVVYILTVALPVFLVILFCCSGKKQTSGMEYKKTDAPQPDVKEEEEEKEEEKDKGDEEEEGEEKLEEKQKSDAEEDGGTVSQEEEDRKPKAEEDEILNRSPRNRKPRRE
UniProt Q15388: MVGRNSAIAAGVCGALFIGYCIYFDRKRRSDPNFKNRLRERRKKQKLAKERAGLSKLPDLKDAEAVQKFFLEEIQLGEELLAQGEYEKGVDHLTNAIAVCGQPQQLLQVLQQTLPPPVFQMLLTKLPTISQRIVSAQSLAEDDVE
UniProt Q9UKV5: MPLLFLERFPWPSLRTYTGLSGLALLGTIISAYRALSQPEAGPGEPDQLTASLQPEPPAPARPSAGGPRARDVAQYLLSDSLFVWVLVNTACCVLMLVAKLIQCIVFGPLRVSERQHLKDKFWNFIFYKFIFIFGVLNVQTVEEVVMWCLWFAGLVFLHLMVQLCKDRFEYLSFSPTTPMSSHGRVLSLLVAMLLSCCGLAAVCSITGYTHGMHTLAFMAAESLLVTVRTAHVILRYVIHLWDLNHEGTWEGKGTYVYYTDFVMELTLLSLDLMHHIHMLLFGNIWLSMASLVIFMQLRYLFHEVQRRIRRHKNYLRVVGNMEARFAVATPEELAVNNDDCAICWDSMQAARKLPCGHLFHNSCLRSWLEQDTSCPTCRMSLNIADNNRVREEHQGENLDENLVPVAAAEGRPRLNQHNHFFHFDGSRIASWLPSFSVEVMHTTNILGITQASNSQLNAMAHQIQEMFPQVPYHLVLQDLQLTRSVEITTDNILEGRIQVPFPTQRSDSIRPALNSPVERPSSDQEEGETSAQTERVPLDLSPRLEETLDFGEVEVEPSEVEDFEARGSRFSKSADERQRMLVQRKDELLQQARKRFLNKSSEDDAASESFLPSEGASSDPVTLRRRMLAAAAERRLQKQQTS

These are yes or no findings as the source states them, for the method shown. In cells and extracts the contact can be indirect. These calls come from enrichment with a bait or labelling near it, and not all partners need be listed. Where a sequence is shown, tags or fusion partners need not be part of it.

This assay has as its target T1, SPTLC2^FLAG (WT-SPTLC2 with C-terminal 3xFLAG), in Flp-In T-REx 293 SPTLC2-KO cells (human) (UniProt O15270).
T1 sequence: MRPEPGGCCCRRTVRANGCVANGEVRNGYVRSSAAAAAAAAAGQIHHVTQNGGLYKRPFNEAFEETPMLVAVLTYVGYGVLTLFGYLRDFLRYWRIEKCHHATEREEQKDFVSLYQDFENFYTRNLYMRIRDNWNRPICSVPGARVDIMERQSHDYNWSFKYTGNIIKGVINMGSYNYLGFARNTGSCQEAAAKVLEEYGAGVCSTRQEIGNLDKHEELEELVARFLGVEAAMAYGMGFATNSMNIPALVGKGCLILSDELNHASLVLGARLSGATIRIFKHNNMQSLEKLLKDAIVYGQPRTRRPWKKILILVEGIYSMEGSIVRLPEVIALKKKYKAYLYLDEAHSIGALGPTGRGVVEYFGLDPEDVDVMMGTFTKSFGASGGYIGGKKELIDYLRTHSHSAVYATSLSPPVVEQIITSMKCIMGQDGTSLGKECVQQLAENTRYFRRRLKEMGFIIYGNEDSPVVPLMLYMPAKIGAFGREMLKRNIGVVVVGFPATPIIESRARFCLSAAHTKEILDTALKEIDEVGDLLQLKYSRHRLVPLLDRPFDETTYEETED
The assay is described as follows: affinity purification with mass spectrometry; heavy membrane fractions of Flp-In T-REx 293 SPTLC2-KO cells with or without SPTLC2^FLAG, solubilised with digitonin (50 mM TRIS pH 7.4, 150 mM NaCl), anti-FLAG magnetic M2 beads 3 h, eluted with 100 mM glycine pH 2.5, mass spectrometry.
Turning to CANX (from UniProt P27824 21-592), the binding entry is given as “binds”.

Regarding TOMM20 (from UniProt Q15388 1-145), the binding entry was “binds”.

On to “CLPB (human (endogenous in Flp-In T-REx 293))”, for which the binding entry was “binds”.

In the case of AMFR (from UniProt Q9UKV5 1-643), the binding entry is “binds”.
